Results as given in article PMC7301494.
These are yes or no findings as the source states them, for the method shown. Binding seen in cells or lysates may run through a third protein. Binding can be weak; no strength is given.

Protein sequences, listed by entry. Tags and fused reporters are not part of them. Lines headed by an entry give the natural chain unless they say otherwise; changes in a name come on top.
UniProt Q8ILM5: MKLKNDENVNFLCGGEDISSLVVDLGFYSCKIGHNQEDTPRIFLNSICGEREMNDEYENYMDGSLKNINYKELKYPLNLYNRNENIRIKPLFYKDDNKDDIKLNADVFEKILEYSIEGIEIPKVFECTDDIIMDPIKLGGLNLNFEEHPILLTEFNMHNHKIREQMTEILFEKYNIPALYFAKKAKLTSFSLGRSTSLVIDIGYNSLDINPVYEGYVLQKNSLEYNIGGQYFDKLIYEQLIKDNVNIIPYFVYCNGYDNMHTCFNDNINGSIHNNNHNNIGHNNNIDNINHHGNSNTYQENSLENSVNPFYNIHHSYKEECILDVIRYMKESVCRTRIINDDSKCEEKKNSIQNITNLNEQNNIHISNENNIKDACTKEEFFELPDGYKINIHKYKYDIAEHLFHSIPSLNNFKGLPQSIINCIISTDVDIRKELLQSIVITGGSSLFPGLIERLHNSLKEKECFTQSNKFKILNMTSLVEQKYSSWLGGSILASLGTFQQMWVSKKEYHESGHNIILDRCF
UniProt Q8IBQ9: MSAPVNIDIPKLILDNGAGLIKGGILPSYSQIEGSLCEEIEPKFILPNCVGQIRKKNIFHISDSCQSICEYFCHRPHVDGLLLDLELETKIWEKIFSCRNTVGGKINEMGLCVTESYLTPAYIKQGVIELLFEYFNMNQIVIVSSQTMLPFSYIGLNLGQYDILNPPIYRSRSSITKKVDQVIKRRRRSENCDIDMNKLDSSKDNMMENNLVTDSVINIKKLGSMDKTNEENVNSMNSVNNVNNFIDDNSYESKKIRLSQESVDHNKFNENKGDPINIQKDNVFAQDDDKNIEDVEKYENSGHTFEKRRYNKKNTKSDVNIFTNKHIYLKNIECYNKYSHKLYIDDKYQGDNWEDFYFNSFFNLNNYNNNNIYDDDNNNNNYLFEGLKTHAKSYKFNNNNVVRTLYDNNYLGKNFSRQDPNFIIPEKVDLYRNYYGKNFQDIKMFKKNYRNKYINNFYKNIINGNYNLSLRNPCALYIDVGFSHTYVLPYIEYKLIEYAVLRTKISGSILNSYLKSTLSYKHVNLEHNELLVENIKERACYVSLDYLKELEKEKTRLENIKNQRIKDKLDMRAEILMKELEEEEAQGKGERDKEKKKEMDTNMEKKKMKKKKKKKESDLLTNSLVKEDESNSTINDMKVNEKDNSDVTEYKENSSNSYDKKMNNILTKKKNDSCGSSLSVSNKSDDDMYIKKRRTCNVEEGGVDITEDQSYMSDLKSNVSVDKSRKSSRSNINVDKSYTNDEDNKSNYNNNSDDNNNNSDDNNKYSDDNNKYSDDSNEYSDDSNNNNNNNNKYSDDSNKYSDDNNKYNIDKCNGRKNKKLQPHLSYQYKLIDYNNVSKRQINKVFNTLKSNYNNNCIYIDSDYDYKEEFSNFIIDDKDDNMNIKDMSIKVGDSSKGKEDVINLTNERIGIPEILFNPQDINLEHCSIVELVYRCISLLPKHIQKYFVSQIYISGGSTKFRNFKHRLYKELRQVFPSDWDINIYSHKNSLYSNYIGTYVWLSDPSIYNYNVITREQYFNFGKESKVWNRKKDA

Molecular target: PfArp4-Ty1 (Plasmodium falciparum actin-related protein Arp4, Ty1x3-tagged) (P. falciparum 3D7) (UniProt Q8ILM5)
Experiment: co-IP; lysate of asynchronous PfArp4-Ty1::PfArp6-HA parasites (saponin-released, sonicated; 25 mM Tris-Cl pH 7.5, 100 mM KCl, 2 mM EDTA, 0.05% NP-40); magnetic beads conjugated with HA antibody, overnight at 4 °C; washed with IPP500 (500 mM NaCl); western blot with anti-PfAldolase, anti-HA and anti-Ty1; 3D7_G7 line as negative control

PfArp6-HA (Plasmodium falciparum actin-related protein Arp6, HAx3-tagged) (from UniProt Q8IBQ9)
binding: binds
